Results as given in US11541107B2, “Peptides and T cells for use in immunotherapeutic treatment of various cancers” (Immatics Biotechnologies GmbH, priority 2015, dated 2023).
Expression values are those of the mRNA of the gene that encodes the peptide; a gene is named only where it was looked up.

System: source genes of the peptides
Assay: Target coverage of source genes based on TCGA Research Network expression data
Parameters: species or system human
Settings: for Target coverage, over-expression category of source gene, SARC: Sarcoma (N = 263); for Target coverage, over-expression category of source gene, SKCM: Skin cutaneous melanoma (N = 473); for Target coverage, over-expression category of source gene, STAD: Stomach adenocarcinoma (N = 415); for Target coverage, over-expression category of source gene, TGCT: Testicular germ cell tumors (N = 156); for Target coverage, over-expression category of source gene, THYM: Thymoma (N = 120); for Target coverage, over-expression category of source gene, UCS: Uterine carcinosarcoma (N = 57); for Target coverage, over-expression category of source gene, UCEC: Uterine corpus endometrial carcinoma (N = 546); for Target coverage, over-expression category of source gene, SARC (N = 263): Sarcoma; for Target coverage, over-expression category of source gene, UCS (N = 57): Uterine carcinosarcoma; for Target coverage, over-expression category of source gene, UCEC (N = 546): Uterine corpus endometrial carcinoma; for Target coverage, over-expression category of source gene, SKCM (N = 473): Skin cutaneous melanoma; for Target coverage, over-expression category of source gene, STAD (N = 415): Stomach adenocarcinoma; for Target coverage, over-expression category of source gene, TGCT (N = 156): Testicular germ cell tumors; for Target coverage, over-expression category of source gene, UVM (N = 80): Uveal melanoma
[1] = cutoff more than 2-fold above highest 75% percentile of normal organs

372: peptide found in NUP210 (gene looked up) (VYVIEPHSMEF; listed as Homo sapiens) [compound 372]
Target coverage, over-expression category of source gene, PRAD (Prostate adenocarcinoma (N = 498)): C (>=5% of tumors above the cutoff, but <20%)
Target coverage, over-expression category of source gene, SARC: C (>=5% of tumors above the cutoff, but <20%)
Target coverage, over-expression category of source gene, SKCM: B (>=20% of tumors above the cutoff, but <50%)
Target coverage, over-expression category of source gene, STAD: B (>=20% of tumors above the cutoff, but <50%)
Target coverage, over-expression category of source gene, TGCT: C (>=5% of tumors above the cutoff, but <20%)
Target coverage, over-expression category of source gene, THYM: A (>=50% of tumors above the cutoff)
Target coverage, over-expression category of source gene, UCS: C (>=5% of tumors above the cutoff, but <20%)
Target coverage, over-expression category of source gene, UCEC: B (>=20% of tumors above the cutoff, but <50%)

181: peptide found in PGR (gene looked up) (VYPPYLNYL; listed as Homo sapiens) [compound 181]
Target coverage, over-expression category of source gene, SARC (N = 263) [1]: C (>=5% of tumors above the cutoff, but <20%)
Target coverage, over-expression category of source gene, UCS (N = 57) [1]: C (>=5% of tumors above the cutoff, but <20%)
Target coverage, over-expression category of source gene, UCEC (N = 546) [1]: A (>=50% of tumors above the cutoff)

404: peptide found in MMP12 (gene looked up) (RYLEKFYGL; listed as Homo sapiens) [compound 404]
Target coverage, over-expression category of source gene, STAD: B (>=20% of tumors above the cutoff, but <50%)
Target coverage, over-expression category of source gene, TGCT: B (>=20% of tumors above the cutoff, but <50%)

105: peptide found in CENPE (gene looked up) (IYNETITDLL; listed as Homo sapiens) [compound 105]
Target coverage, over-expression category of source gene, SKCM (N = 473) [1]: C (>=5% of tumors above the cutoff, but <20%)
Target coverage, over-expression category of source gene, STAD (N = 415) [1]: A (>=50% of tumors above the cutoff)
Target coverage, over-expression category of source gene, UCEC (N = 546) [1]: C (>=5% of tumors above the cutoff, but <20%)

191: peptide found in TIGIT (gene looked up) (TYPDGTYTGRIF; listed as Homo sapiens) [compound 191]
Target coverage, over-expression category of source gene, SARC (N = 263) [1]: C (>=5% of tumors above the cutoff, but <20%)
Target coverage, over-expression category of source gene, SKCM (N = 473) [1]: C (>=5% of tumors above the cutoff, but <20%)
Target coverage, over-expression category of source gene, TGCT (N = 156) [1]: C (>=5% of tumors above the cutoff, but <20%)

347: peptide found in CSNK2A2 (gene looked up) (VYAEVNSL; listed as Homo sapiens) [compound 347]
Target coverage, over-expression category of source gene, UVM (N = 80) [1]: C (>=5% of tumors above the cutoff, but <20%)

219: peptide found in CYP4Z1 (gene looked up) (SYLKAVFNL; listed as Homo sapiens) [compound 219]
Target coverage, over-expression category of source gene, UCS (N = 57) [1]: C (>=5% of tumors above the cutoff, but <20%)
Target coverage, over-expression category of source gene, UCEC (N = 546) [1]: C (>=5% of tumors above the cutoff, but <20%)

400: peptide found in MMP1 (gene looked up) (KYLEKYYNL; listed as Homo sapiens) [compound 400]
Target coverage, over-expression category of source gene, SARC: C (>=5% of tumors above the cutoff, but <20%)
Target coverage, over-expression category of source gene, SKCM: C (>=5% of tumors above the cutoff, but <20%)
Target coverage, over-expression category of source gene, STAD: A (>=50% of tumors above the cutoff)
Target coverage, over-expression category of source gene, UCS: C (>=5% of tumors above the cutoff, but <20%)
Target coverage, over-expression category of source gene, UCEC: C (>=5% of tumors above the cutoff, but <20%)

374: peptide found in PRKDC (gene looked up) (VFLPRVTEL; listed as Homo sapiens) [compound 374]
Target coverage, over-expression category of source gene, SARC: C (>=5% of tumors above the cutoff, but <20%)
Target coverage, over-expression category of source gene, SKCM: C (>=5% of tumors above the cutoff, but <20%)
Target coverage, over-expression category of source gene, STAD: B (>=20% of tumors above the cutoff, but <50%)
Target coverage, over-expression category of source gene, TGCT: B (>=20% of tumors above the cutoff, but <50%)
Target coverage, over-expression category of source gene, UCS: B (>=20% of tumors above the cutoff, but <50%)
Target coverage, over-expression category of source gene, UVM (Uveal melanoma (N = 80)): C (>=5% of tumors above the cutoff, but <20%)

408: peptide found in PLK4 (gene looked up) (QYASRFVQL; listed as Homo sapiens) [compound 408]
Target coverage, over-expression category of source gene, SARC: B (>=20% of tumors above the cutoff, but <50%)
Target coverage, over-expression category of source gene, SKCM: C (>=5% of tumors above the cutoff, but <20%)
Target coverage, over-expression category of source gene, STAD: B (>=20% of tumors above the cutoff, but <50%)
Target coverage, over-expression category of source gene, TGCT: A (>=50% of tumors above the cutoff)
Target coverage, over-expression category of source gene, THYM: B (>=20% of tumors above the cutoff, but <50%)
Target coverage, over-expression category of source gene, UCS: B (>=20% of tumors above the cutoff, but <50%)
Target coverage, over-expression category of source gene, UCEC: B (>=20% of tumors above the cutoff, but <50%)

344: peptide found in BUB1 (gene looked up) (EYNSDLHQF; listed as Homo sapiens) [compound 344]
Target coverage, over-expression category of source gene, STAD (N = 415) [1]: A (>=50% of tumors above the cutoff)
Target coverage, over-expression category of source gene, TGCT (N = 156) [1]: A (>=50% of tumors above the cutoff)
Target coverage, over-expression category of source gene, UCS (N = 57) [1]: A (>=50% of tumors above the cutoff)

212: peptide found in SGK3 (gene looked up) (SYAPPSEDLF; listed as Homo sapiens) [compound 212]
Target coverage, over-expression category of source gene, SKCM (N = 473) [1]: C (>=5% of tumors above the cutoff, but <20%)
Target coverage, over-expression category of source gene, THCA (N = 513) (Thyroid carcinoma, cutoff more than 2-fold above highest 75% percentile of normal organs): C (>=5% of tumors above the cutoff, but <20%)

251: peptide found in NCAPG (gene looked up) (VYTKALSSL; listed as Homo sapiens) [compound 251]
Target coverage, over-expression category of source gene, SARC (N = 263) [1]: A (>=50% of tumors above the cutoff)
Target coverage, over-expression category of source gene, TGCT (N = 156) [1]: A (>=50% of tumors above the cutoff)
Target coverage, over-expression category of source gene, THYM (N = 120) (Thymoma, cutoff more than 2-fold above highest 75% percentile of normal organs): A (>=50% of tumors above the cutoff)
Target coverage, over-expression category of source gene, UCS (N = 57) [1]: A (>=50% of tumors above the cutoff)

415: peptide found in PBK (gene looked up) (SYQKVIELF; listed as Homo sapiens) [compound 415]
Target coverage, over-expression category of source gene, SARC: C (>=5% of tumors above the cutoff, but <20%)
Target coverage, over-expression category of source gene, SKCM: B (>=20% of tumors above the cutoff, but <50%)
Target coverage, over-expression category of source gene, STAD: B (>=20% of tumors above the cutoff, but <50%)
Target coverage, over-expression category of source gene, TGCT: C (>=5% of tumors above the cutoff, but <20%)
Target coverage, over-expression category of source gene, THYM: C (>=5% of tumors above the cutoff, but <20%)
Target coverage, over-expression category of source gene, UCS: C (>=5% of tumors above the cutoff, but <20%)
Target coverage, over-expression category of source gene, UCEC: C (>=5% of tumors above the cutoff, but <20%)

144: peptide found in CCR4 (gene looked up) (VFASLPGFLF; listed as Homo sapiens) [compound 144]
Target coverage, over-expression category of source gene, STAD (N = 415) [1]: C (>=5% of tumors above the cutoff, but <20%)

123: peptide found in PRKDC (gene looked up) (VYTPVLEHL; listed as Homo sapiens) [compound 123]
Target coverage, over-expression category of source gene, SARC (N = 263) [1]: C (>=5% of tumors above the cutoff, but <20%)
Target coverage, over-expression category of source gene, SKCM (N = 473) [1]: C (>=5% of tumors above the cutoff, but <20%)
Target coverage, over-expression category of source gene, UVM (N = 80) [1]: C (>=5% of tumors above the cutoff, but <20%)

340: peptide found in MOB1A (gene looked up) (SVAKTILKR; listed as Homo sapiens) [compound 340]
Target coverage, over-expression category of source gene, STAD (N = 415) [1]: C (>=5% of tumors above the cutoff, but <20%)

401: peptide found in MMP1 (gene looked up) (VFMKDGFFYF; listed as Homo sapiens) [compound 401]
Target coverage, over-expression category of source gene, SARC: C (>=5% of tumors above the cutoff, but <20%)
Target coverage, over-expression category of source gene, SKCM: C (>=5% of tumors above the cutoff, but <20%)
Target coverage, over-expression category of source gene, STAD: A (>=50% of tumors above the cutoff)
Target coverage, over-expression category of source gene, UCS: C (>=5% of tumors above the cutoff, but <20%)
Target coverage, over-expression category of source gene, UCEC: C (>=5% of tumors above the cutoff, but <20%)

376: peptide found in RAD18 (gene looked up) (VYTPVASRQSL; listed as Homo sapiens) [compound 376]
Target coverage, over-expression category of source gene, SARC: C (>=5% of tumors above the cutoff, but <20%)
Target coverage, over-expression category of source gene, SKCM: B (>=20% of tumors above the cutoff, but <50%)
Target coverage, over-expression category of source gene, STAD: C (>=5% of tumors above the cutoff, but <20%)
Target coverage, over-expression category of source gene, TGCT: B (>=20% of tumors above the cutoff, but <50%)

409: peptide found in RRM2 (gene looked up) (YFISHVLAF; listed as Homo sapiens) [compound 409]
Target coverage, over-expression category of source gene, SARC: C (>=5% of tumors above the cutoff, but <20%)
Target coverage, over-expression category of source gene, SKCM: C (>=5% of tumors above the cutoff, but <20%)
Target coverage, over-expression category of source gene, STAD: B (>=20% of tumors above the cutoff, but <50%)
Target coverage, over-expression category of source gene, TGCT: B (>=20% of tumors above the cutoff, but <50%)
Target coverage, over-expression category of source gene, THYM: B (>=20% of tumors above the cutoff, but <50%)
Target coverage, over-expression category of source gene, UCEC: C (>=5% of tumors above the cutoff, but <20%)

210: peptide found in BUB1B (gene looked up) (IYAGVGEFSF; listed as Homo sapiens) [compound 210]
Target coverage, over-expression category of source gene, TGCT (N = 156) [1]: A (>=50% of tumors above the cutoff)
